Patent US20250134917A1, “COMPOSITIONS AND METHODS OF REGENERATING HEART TISSUES WITH AMINOGLYCOSIDES” (The Board of Regents of The University of Texas System, priority 2022, published 2025)
Some results were stated once for a whole list of compounds, not compound by compound. For at least one compound, name, drawing or mass did not settle the structure.

Test system: neonatal rat ventricular myocytes (NRVMs)
Experiment: In vitro phenotypic screening for NRVM proliferation (pH3 immunostaining)
Format: cell-based
Settings: NRVMs treated with 10 μM

## COc1ccc([C@@H]2CC(=O)c3c(O)cc(O[C@@H]4O[C@H](CO[C@@H]5O[C@@H](C)[C@H](O)[C@@H](O)[C@H]5O)[C@@H](O)[C@H](O)[C@H]4O)cc3O2)cc1O [Hesperidin, hesperidin]
  increase in the pH3-positive cardiomyocytes compared to control treated NRVMs: up to 5 fold
